Screen size: about 310,000 compounds; about 17,000 (5.5%) were called active. The shares of active, inactive and inconclusive entries below differ from those in the screen. Calls come from the whole dose curve; as a rule, active = well fitted inhibition curve with a large enough effect; inconclusive = small, poorly fitted or top-dose-only effect, or effect the other way; inactive = no such curve, though single readings can be large or run the other way. Potencies of inconclusive entries are doubtful fits and often do not repeat.
Each compound was assayed against Nuclear receptor ROR-gamma (Mus musculus) (UniProt P51450) (assay: qHTS for inhibitors of ROR gamma transcriptional activity). Details: Drosophila S2 Gal4-RORgamma UAS-luciferase reporter, 20 h; activity change, negative = inhibition: at 53.6 µM (top of the series).
How it was run: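 Stable Schneider cell line, Gal4 DNA-binding domain fused to ROR gamma, UAS-luciferase. Cmpd 1 hr RT → CuSO4 700 uM final → 20 hr RT → luciferase reagent 10 min → luminescence.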
% is set by controls: 0 for no effect and ±100 for the full control effect; potency is the fitted concentration of half-maximal effect.
Note: nearly all actives have a fitted effect of over 60% in size.

Amino acid sequences for entries named in this document (tags omitted). A change or cut given only in a name is not applied to a line headed by its entry.
UniProt P51450: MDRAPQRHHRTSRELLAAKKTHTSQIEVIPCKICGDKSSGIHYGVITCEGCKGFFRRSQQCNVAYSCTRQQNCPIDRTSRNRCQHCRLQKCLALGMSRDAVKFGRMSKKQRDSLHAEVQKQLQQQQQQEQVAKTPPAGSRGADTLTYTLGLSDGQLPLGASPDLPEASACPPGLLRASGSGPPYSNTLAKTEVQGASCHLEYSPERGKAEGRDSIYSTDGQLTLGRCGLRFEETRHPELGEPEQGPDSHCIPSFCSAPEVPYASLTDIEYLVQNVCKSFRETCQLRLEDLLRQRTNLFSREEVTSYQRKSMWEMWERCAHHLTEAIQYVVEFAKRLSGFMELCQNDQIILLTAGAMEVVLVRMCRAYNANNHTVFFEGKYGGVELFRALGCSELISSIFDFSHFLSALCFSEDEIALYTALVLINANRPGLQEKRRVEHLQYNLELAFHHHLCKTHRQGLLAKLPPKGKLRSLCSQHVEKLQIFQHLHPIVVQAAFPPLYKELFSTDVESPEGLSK

Potency, active:
CCN(Cc1ccccc1)S(=O)(=O)c1ccc(C(=O)Nc2nnc(C)o2)cc1 0.562 µM, Cc1ccc(C(=O)Nc2nc(-c3ccccn3)cs2)o1 12.6 µM, CC(C)(C)C1=CC(=O)C(=O)C(C(C)(C)C)=C1 10 µM, Cc1nc2cc(NC(=O)c3ccc(Br)s3)ccc2s1 5.01 µM, O=C(Nc1cccc(O)c1)c1noc2c1CCCCC2 11.2 µM, Cc1ccc(OCCCc2c(C)n[nH]c2C)cc1 11.2 µM, CCOc1cc(NC(=S)NC)c(OCC)cc1NC(=O)c1cccs1 8.91 µM, CCn1c(/C=N/c2nc3ccccc3n2C)nc2ccccc21 12.6 µM, Cc1cc(-c2nnc(SCC(=O)Nc3nccs3)o2)no1 15.8 µM, Cc1ccc2nc(C3CCCN3Cc3nc(CCC(C)C)no3)[nH]c2c1 (centres undefined) 7.08 µM, CC(=O)C1=C(C)NC(SCC(=O)c2ccc(Cl)cc2)=C(C#N)C1CC(C)C (centres undefined) 11.2 µM, COc1ccc(C(C[N+](=O)[O-])c2c(C)[nH]n(-c3ccccc3)c2=O)cc1 (centres undefined) 12.6 µM, Cc1cc(C)c2nc(NNC(=O)c3cc(-c4cccs4)nc4ccccc34)sc2c1 1.78 µM, O=C1N/C(=N/c2ccccn2)SC1Cc1ccccc1 (centres undefined) 0.891 µM

Potency, inconclusive:
COc1ccc2nc(NC(=O)c3cnccn3)sc2c1 10 µM [inhibitor, partial curve, poor fit], Cc1ccc(S(=O)(=O)Nc2cc(C)c(O)c(S(=O)(=O)c3ccc(C)cc3)c2)cc1 11.2 µM [activator, partial curve], COc1c(C)cc(Br)cc1C(=O)Nc1ccc(Cc2ccncc2)cc1 35.5 µM [inhibitor, single point], COC(=O)c1ccc(OCC(O)CN(CCO)CC(O)Cn2ccc3ccccc32)cc1 (centres undefined) 15.8 µM [activator, single point], COc1ccc(NC(=O)N2CCN(c3nc(-c4cccc(OC)c4)cs3)CC2)cc1 20 µM [activator, partial curve], Cc1cc(N2CC(C(=O)Nc3nccs3)CC2=O)ccc1C(C)C (centres undefined) 35.5 µM [activator, single point], CC(Sc1ccccc1)C(=O)N/N=C/c1cccnc1 (centres undefined) 20 µM [activator, partial curve], CN(C(=O)CS(=O)(=O)c1cccc(Cl)c1)c1ccccc1 11.2 µM [inhibitor, single point], CC1=CC(=O)C=C(C)C1=NOC(=O)/C=C\c1ccccc1 17.8 µM [inhibitor, single point], Brc1ccc(-c2cn3ccccc3n2)s1 20 µM [inhibitor, single point], C/C(=N\NC(=O)c1cccc(Br)c1)c1cccc(NC(=O)c2ccc(C)o2)c1 25.1 µM [inhibitor, single point], Cc1ccc(NC(=O)c2sc3nc(N)c(C#N)cc3c2N)cc1 7.08 µM [inhibitor, single point], O=C(COc1ccccc1)N(Cc1ccco1)c1ccc(O)cc1 0.562 µM [activator, full curve, poor fit], Cc1nnc(N/N=C\c2ccc(-c3cccc(C(=O)O)c3)o2)n1N 0.631 µM [inhibitor, full curve], Cc1ccc2oc(=O)c(/C=C(\O)c3cccs3)nc2c1 28.2 µM [inhibitor, single point], O=C(COc1ccccc1-c1ccccc1)NCc1cccc(Cl)c1 10 µM [activator, partial curve], COC(=O)CC1SC(=O)NC1=Nc1cccc(C)c1 (centres undefined) 25.1 µM [inhibitor, single point], CCOC(=O)CCc1nc2ccccc2[nH]1 35.5 µM [activator, single point], CC1(c2ccccc2)O[C@@H]2C[C@H]3[C@@H]4CCC5=CC(=O)C=C[C@]5(C)[C@@]4(F)[C@@H](O)C[C@]3(C)[C@]2(C(=O)CO)O1 (some centres undefined) 35.5 µM [inhibitor, partial curve, poor fit], COc1ccc(-n2nc3c(N4CCC(C(=O)NCc5cccc(C)c5)CC4)nnc(C)c3c2C)cc1 35.5 µM [inhibitor, single point], c1cncc(-c2nc3cc4ccccc4cc3[nH]2)c1 12.6 µM [inhibitor, single point], Cn1c(=O)c2c(nc(NC3CCCCC3)n2Cc2ccccc2)n(C)c1=O 25.1 µM [activator, single point], CCCCC(=O)Nc1nc2c(s1)COc1ccccc1-2 35.5 µM [inhibitor, single point], O=C1CC2C(CC(OC(=O)c3ccc(-c4ccccc4)cc3)C2CO)O1 (centres undefined) 12.6 µM [activator, single point], O=C(c1cccs1)c1coc2ccc(O)cc12 5.01 µM [activator, partial curve], O=C(COc1ccc(C(=O)c2ccccc2)cc1)NC1CCCCCC1 31.6 µM [inhibitor, single point], CCN(CCCNC(=O)CCCCn1c(=O)[nH]c2ccccc2c1=O)c1ccccc1 35.5 µM [activator, single point], COc1ccc(NC(=O)C2CCN(S(=O)(=O)c3cccc4cccnc34)CC2)cc1OC 0.562 µM [activator, full curve], COc1cc(OC)c(NC(=S)NCc2ccc(F)cc2)cc1Cl 25.1 µM [inhibitor, single point], O=[N+]([O-])c1ccc(-c2cnc(SC(c3ccccc3)c3ccccc3)[nH]2)cc1 35.5 µM [inhibitor, single point], COc1ccc(-c2ccc(C#N)c(OC)n2)cc1 0.562 µM [activator, full curve, poor fit], COc1ccc(N=C2C(=Nc3ccc(OC)cc3)N(c3ccc(OC)cc3)C(=S)N2C(=O)c2ccc(OC)cc2)cc1 11.2 µM [inhibitor, single point], Clc1ccccc1Cn1nnc2c(Nc3ccccc3)ncnc21 12.6 µM [activator, partial curve], COc1ccc(C2C(C#N)=C(N)Nc3nc4ccccc4n32)cc1 (centres undefined) 1.58 µM [activator, full curve], O=C(NC1CCCC1)c1cc(-c2cccs2)on1 8.91 µM [inhibitor, partial curve], CCn1c(CCNC(=O)c2ccc(Cl)cc2Cl)n[nH]c1=S 8.91 µM [inhibitor, partial curve], O=C(NNC1=NCCC1)c1cccc(S(=O)(=O)N2CCOCC2)c1 11.2 µM [inhibitor, partial curve, poor fit], Cc1cc(/C=C(\C#N)C(=O)N2CCOCC2)c(C)n1C1CCCC1 15.8 µM [inhibitor, partial curve, poor fit], CCOC(=O)Cc1csc(NC(=O)c2cc(C)cc(C)c2)n1 15.8 µM [inhibitor, single point], NC(=O)COC(=O)CN1C(=O)C2CCCCC2C1=O (centres undefined) 0.708 µM [inhibitor, partial curve, poor fit]

Potency, inactive:
O=C(NCc1cccs1)c1ccccc1F, COc1ccc(C(C)=O)cc1CN1CCCCC1, CSc1ccc(S(=O)(=O)N2CCC(C(=O)N3CCc4ccccc4C3)CC2)cc1, O=S(=O)(c1ccc(Cl)c(F)c1)N1CCC(c2nc(-c3ccncc3)no2)CC1, COc1ccc(Oc2ncc3nc(-c4cn(C)c5ccccc45)c(=O)n(C)c3n2)cc1, COc1ccc(C2=Nn3c(nnc3-c3ccco3)SC2)cc1, COc1ccc(CN2CCN(Cc3cc4ccccc4o3)CC2CCO)cc1C (centres undefined), Cc1noc(C)c1C(=O)N1CCN(c2ccc(OCc3ccccc3)cc2)CC1, CC1(C)CCC[C@@](C)([C@H]2CC[C@]3(C)[C@@H]2[C@H](O)C[C@@H]2[C@@]4(C)CC[C@H](O)C(C)(C)[C@@H]4CC[C@]23C)O1, CN1CCN(CCNC(=O)Cn2c(=O)c3cccn3c3ccc(F)cc32)CC1, CCn1c2ccccc2c2cc(NC(=O)COC(=O)C3CCC(=O)N3)ccc21 (centres undefined), CCN(CC)CCCNC(=O)C(C)n1nc(C)c2sc3ccccc3c2c1=O (centres undefined), CCN(CC)S(=O)(=O)c1ccc(N2CCOCC2)c(NC(=O)COc2ccccc2C#N)c1, COc1ccccc1/C=C/C(=O)N1CCc2cc(OC)c(OC)cc2C1C (centres undefined), O=C(c1ccco1)N1CCC2(CC1)CCN(c1ccccn1)CC2, COc1cccc(/C(C#N)=C/c2c(-c3ccc(Cl)cc3)nc3c(C)cccn23)c1, COc1ccc(-c2nc3cc(C)ccn3c2NC(=O)c2ccccc2OC)cc1, COc1ccc(-n2cnc3ccccc3c2=O)c([N+](=O)[O-])c1, CCN1CCN(CCNC(=O)c2ccc(CS(=O)c3ccc(Br)cc3)o2)CC1 (centres undefined)

Activity change, negative = inhibition, inactive:
CCN1C(=O)CC(N2CCC(C(=O)OC)CC2)C1=O (centres undefined) 33.7% [at 0.365 µM]

Reference: PubChem BioAssay AID2551 (National Center for Advancing Translational Sciences (NCATS), 2010)
